PubChem BioAssay AID1508597 | Cure First | 2020

- Assay: 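Knock-downs altering ovarian cancer cell survival with or without PARP inhibitor rucaparib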 (primary screen)
- System: human ovarian carcinoma lines grown from tumours: OCI-P5x (papillary serous) and OCI-C5x (clear cell)
- Reagents: siRNA pool against human genes, 1.25 pmol siRNA per well
- Duration: 72 h or 96 h, depending on the cell culture
- Treatment: rucaparib 20 µM (about IC30) or vehicle, present until read-out
- Rucaparib or vehicle: Vehicle
- Cell line: OCI-P5x (serous)
- Measurement: 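Luminescent ATP-based viability assay read 72 or 96 h after transfection, depending on culture, given as normalised percent viability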
- Reading the numbers: viability, normalised: higher = more viable cells remaining
- Hit rule: 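Active when normalised viability falls below 80 percent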
- Calls: active = viability under 80%; inactive = viability 80% or more
Shown is an unselected part of the about 2,100 reagents, under one of the conditions tested. 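Calls flag viability under 80% in either arm, not effects specific to rucaparib; the reference for percent is not stated.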 A reagent listed more than once was tested more than once; the source does not tell the runs apart. Not given: the 100% reference.

gene knocked down | technical replicate | viability, normalised (%) | activity call
CRKL | 1 | 86.6 | inactive
CRKL | 2 | 75.1 | active
CRKL | 3 | 79 | active
TJP3 | 1 | 68.2 | active
TJP3 | 2 | 62.3 | active
TJP3 | 3 | 86 | inactive
SETD1A | 1 | 59.3 | active
SETD1A | 2 | 59.2 | active
SETD1A | 3 | 94.5 | inactive
WWTR1 | 1 | 50.6 | active
WWTR1 | 2 | 82.8 | inactive
WWTR1 | 3 | 78.1 | active
WNK3 | 1 | 96.2 | inactive
WNK3 | 2 | 69.7 | active
WNK3 | 3 | 70.3 | active
DDX5 | 1 | 64.1 | active
DDX5 | 1 | 73.8 | active
DDX5 | 2 | 69.2 | active
DDX5 | 2 | 93.4 | inactive
DDX5 | 3 | 74.2 | active
DDX5 | 3 | 71.8 | active
SIN3B | 1 | 52.6 | active
SIN3B | 2 | 53.8 | active
SIN3B | 3 | 63.9 | active
STK24 | 1 | 80.2 | inactive
STK24 | 2 | 98.6 | inactive
STK24 | 3 | 81.5 | inactive
PHF6 | 1 | 62.1 | active
PHF6 | 2 | 67.1 | active
PHF6 | 3 | 60.2 | active
LSM1 | 1 | 66 | active
LSM1 | 2 | 61.7 | active
LSM1 | 3 | 75.8 | active
CKMT2 | 1 | 91.5 | inactive
CKMT2 | 2 | 92.1 | inactive
CKMT2 | 3 | 84.4 | inactive
SMYD2 | 1 | 54.6 | active
SMYD2 | 2 | 60.2 | active
SMYD2 | 3 | 76.4 | active
